Measured values from patent US10577404B2, “Polypeptide derivatives from grass carp interferon and application thereof” (priority 2018, dated 2020).
At least one peptide structure holds a part that was inferred or is arguable (an end, a ring closure or a residue). Ends that are not written are not given here.

Legend:
Experiment in all cases: Antibacterial activity test (antibacterial rate, colony count)
Assay type in all cases: cell-based
Conditions in all cases: for Antibacterial rate: 30° C. 2 hours
[1] = tested on: pathogenic multi-drug resistant Escherichia coli PCN033
Staphylococcus aureus = tested on: Staphylococcus aureus
Pseudomonas aeruginosa = tested on: Pseudomonas aeruginosa
Vibrio fluvialis = tested on: Vibrio fluvialis
Aeromonas hydrophila = tested on: Aeromonas hydrophila
Streptococcus agalactiae = tested on: Streptococcus agalactiae
[2] = polypeptide solution 0.001 mg/ml
[3] = polypeptide solution 0.01 mg/ml

SYEKKINRHFKILKKNLKKK [Interferon-derived polypeptide]
antibacterial effect (in words) ([1]; judged from Table 1): obvious antibacterial effect | Antibacterial rate [1, 2]: 6% | Antibacterial rate [1, 3]: 75% | Antibacterial rate ([1]; polypeptide solution 0.1 mg/ml): 100% | Antibacterial rate ([1]; polypeptide solution 1.0 mg/ml): 100% | antibacterial effect (in words) (Staphylococcus aureus; judged from Table 1): weak antibacterial effect | Antibacterial rate (Staphylococcus aureus; [2]): 0% | Antibacterial rate (Staphylococcus aureus; [3]): 2% | Antibacterial rate (Staphylococcus aureus; polypeptide solution 0.1 mg/ml): 26% | Antibacterial rate (Staphylococcus aureus; polypeptide solution 1.0 mg/ml): 85% | antibacterial effect (in words) (Pseudomonas aeruginosa; judged from Table 1): obvious antibacterial effect | Antibacterial rate (Pseudomonas aeruginosa; [2]): 12% | Antibacterial rate (Pseudomonas aeruginosa; [3]): 85% | Antibacterial rate (Pseudomonas aeruginosa; polypeptide solution 0.1 mg/ml): 100% | Antibacterial rate (Pseudomonas aeruginosa; polypeptide solution 1.0 mg/ml): 100% | antibacterial effect (in words) (Vibrio fluvialis; judged from Table 1): obvious antibacterial effect | Antibacterial rate (Vibrio fluvialis; [2]): 3% | Antibacterial rate (Vibrio fluvialis; [3]): 23% | Antibacterial rate (Vibrio fluvialis; polypeptide solution 0.1 mg/ml): 100% | Antibacterial rate (Vibrio fluvialis; polypeptide solution 1.0 mg/ml): 100% | antibacterial effect (in words) (Aeromonas hydrophila; judged from Table 1): obvious antibacterial effect | Antibacterial rate (Aeromonas hydrophila; [2]): 2% | Antibacterial rate (Aeromonas hydrophila; [3]): 62% | Antibacterial rate (Aeromonas hydrophila; polypeptide solution 0.1 mg/ml): 100% | Antibacterial rate (Aeromonas hydrophila; polypeptide solution 1.0 mg/ml): 100% | antibacterial effect (in words) (Streptococcus agalactiae; judged from Table 1): weak antibacterial effect | Antibacterial rate (Streptococcus agalactiae; [2]): 0% | Antibacterial rate (Streptococcus agalactiae; [3]): 3% | Antibacterial rate (Streptococcus agalactiae; polypeptide solution 0.1 mg/ml): 36% | Antibacterial rate (Streptococcus agalactiae; polypeptide solution 1.0 mg/ml): 100%
